Test results from publication PMC7977452.
No constants are given. Whether binding was seen depends on the method and setting. Some results given as binding are weak or reduced against the parent protein; the word gives no strength.

Sequences of proteins named here, by UniProt entry; tags and fusion partners are left off. Residues count along the entry.
UniProt Q8VDD5, residues 1-838: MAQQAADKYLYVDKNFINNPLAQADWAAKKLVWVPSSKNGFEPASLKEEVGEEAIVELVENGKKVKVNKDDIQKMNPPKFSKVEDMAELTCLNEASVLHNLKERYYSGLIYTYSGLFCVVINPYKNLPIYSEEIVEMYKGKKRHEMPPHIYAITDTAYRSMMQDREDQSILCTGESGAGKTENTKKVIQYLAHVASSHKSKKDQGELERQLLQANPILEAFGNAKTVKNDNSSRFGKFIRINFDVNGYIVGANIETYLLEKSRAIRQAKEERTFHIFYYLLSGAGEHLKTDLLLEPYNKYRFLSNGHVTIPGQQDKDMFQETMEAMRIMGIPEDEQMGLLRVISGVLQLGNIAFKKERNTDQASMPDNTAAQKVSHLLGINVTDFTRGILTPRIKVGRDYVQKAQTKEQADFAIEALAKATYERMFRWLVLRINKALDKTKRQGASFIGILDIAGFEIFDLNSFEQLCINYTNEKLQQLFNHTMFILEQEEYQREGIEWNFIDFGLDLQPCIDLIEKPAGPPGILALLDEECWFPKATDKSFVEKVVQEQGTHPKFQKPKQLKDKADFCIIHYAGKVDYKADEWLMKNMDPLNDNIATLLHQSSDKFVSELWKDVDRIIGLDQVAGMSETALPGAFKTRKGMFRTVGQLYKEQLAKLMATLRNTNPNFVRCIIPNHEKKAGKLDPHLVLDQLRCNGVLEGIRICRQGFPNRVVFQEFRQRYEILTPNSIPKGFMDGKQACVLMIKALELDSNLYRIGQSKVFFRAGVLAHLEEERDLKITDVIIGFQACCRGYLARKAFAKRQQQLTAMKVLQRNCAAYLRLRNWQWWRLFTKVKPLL

Target: GST-Trio-GEFD1 (amino acids 1203-1813) (mouse) (UniProt Q0KL02)
Assay: pull-down; purified His-Myh9 mixed with purified GST or GST-Trio, 4 °C overnight with rotation, washed 3 times with PBS; western blot with anti-His and anti-GST; both purified

binding: binds
Substance: His-Myh9 head domain (amino acids 1-838) (from UniProt Q8VDD5 1-838) (domain or fragment)
